Some results were stated once for a whole list of compounds, not compound by compound. For at least one compound, name, drawing or mass did not settle the structure.
Experiment: [14C]-labeled Compound 1 650 mg metabolism and excretion
Type: in vivo, human
Conditions: single 650 mg [14C]-labeled
Text: Compound 1 is metabolized via UGT, mainly producing O-glucuronide conjugates.
The urinary excretion rate of this drug and acyl glucuronide is less than 1% of the total radioactivity.

| Compound | urinary excretion rate, of the total radioactivity |
| --- | --- |
| O=C(O)CNC(=O)c1ncc(-c2cccc(Cl)c2)cc1O [Compound 1, {[5-(3-chlorophenyl)-3-hydroxypyridine-2-carbonyl]amino}acetic acid] | less than 1% |
| O=C(CNC(=O)c1ncc(-c2cccc(Cl)c2)cc1O)O[C@@H]1O[C@H](C(=O)O)[C@@H](O)[C@H](O)[C@H]1O [Compound 1-acyl-glucuronide] | less than 1% |
